The record followed here is publication PMC7782792.

Protein sequences, listed by entry. Tags and fused reporters are not part of them. Lines headed by an entry give the natural chain unless they say otherwise; changes in a name come on top. Residues count along the entry.
UniProt P10636: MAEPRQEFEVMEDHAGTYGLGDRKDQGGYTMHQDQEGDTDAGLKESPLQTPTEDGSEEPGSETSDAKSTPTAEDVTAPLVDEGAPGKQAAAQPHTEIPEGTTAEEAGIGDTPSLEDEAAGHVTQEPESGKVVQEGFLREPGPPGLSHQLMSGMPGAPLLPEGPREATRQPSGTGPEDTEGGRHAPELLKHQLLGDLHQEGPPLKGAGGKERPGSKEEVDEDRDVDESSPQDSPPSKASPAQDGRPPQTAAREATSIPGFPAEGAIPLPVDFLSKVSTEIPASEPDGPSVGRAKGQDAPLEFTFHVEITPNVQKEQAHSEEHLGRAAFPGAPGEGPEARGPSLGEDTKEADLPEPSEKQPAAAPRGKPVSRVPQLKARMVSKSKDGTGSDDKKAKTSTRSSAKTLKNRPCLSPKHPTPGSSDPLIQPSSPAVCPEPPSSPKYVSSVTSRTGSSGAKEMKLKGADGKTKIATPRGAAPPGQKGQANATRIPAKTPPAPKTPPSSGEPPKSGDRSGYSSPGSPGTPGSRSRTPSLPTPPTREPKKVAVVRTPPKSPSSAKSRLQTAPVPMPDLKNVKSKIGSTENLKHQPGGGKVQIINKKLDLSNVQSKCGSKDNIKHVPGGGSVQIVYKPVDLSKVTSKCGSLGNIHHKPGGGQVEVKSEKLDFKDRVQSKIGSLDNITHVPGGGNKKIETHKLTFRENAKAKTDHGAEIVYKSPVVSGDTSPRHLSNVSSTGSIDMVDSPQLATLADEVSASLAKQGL
UniProt P05556: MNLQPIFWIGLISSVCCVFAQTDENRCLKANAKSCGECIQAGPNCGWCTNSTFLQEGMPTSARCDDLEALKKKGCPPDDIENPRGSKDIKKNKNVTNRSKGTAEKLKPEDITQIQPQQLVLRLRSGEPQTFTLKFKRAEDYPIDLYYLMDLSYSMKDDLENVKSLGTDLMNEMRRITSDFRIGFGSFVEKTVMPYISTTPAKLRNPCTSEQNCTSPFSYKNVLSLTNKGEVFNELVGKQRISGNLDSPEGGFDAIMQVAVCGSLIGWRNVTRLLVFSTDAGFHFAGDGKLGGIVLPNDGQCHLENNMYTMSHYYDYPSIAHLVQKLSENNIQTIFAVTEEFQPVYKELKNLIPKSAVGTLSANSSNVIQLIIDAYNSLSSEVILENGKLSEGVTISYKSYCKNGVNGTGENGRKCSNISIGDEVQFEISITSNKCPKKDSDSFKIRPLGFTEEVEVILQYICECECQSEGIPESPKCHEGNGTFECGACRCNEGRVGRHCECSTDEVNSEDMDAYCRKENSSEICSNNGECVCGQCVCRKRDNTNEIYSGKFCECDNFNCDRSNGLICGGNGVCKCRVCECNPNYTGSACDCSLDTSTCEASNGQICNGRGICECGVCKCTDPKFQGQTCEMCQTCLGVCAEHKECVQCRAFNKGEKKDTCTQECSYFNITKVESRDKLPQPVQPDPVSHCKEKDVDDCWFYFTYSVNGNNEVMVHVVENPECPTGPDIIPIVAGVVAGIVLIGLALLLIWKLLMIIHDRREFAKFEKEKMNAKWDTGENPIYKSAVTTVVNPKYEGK
UniProt P06756, residues 31-992: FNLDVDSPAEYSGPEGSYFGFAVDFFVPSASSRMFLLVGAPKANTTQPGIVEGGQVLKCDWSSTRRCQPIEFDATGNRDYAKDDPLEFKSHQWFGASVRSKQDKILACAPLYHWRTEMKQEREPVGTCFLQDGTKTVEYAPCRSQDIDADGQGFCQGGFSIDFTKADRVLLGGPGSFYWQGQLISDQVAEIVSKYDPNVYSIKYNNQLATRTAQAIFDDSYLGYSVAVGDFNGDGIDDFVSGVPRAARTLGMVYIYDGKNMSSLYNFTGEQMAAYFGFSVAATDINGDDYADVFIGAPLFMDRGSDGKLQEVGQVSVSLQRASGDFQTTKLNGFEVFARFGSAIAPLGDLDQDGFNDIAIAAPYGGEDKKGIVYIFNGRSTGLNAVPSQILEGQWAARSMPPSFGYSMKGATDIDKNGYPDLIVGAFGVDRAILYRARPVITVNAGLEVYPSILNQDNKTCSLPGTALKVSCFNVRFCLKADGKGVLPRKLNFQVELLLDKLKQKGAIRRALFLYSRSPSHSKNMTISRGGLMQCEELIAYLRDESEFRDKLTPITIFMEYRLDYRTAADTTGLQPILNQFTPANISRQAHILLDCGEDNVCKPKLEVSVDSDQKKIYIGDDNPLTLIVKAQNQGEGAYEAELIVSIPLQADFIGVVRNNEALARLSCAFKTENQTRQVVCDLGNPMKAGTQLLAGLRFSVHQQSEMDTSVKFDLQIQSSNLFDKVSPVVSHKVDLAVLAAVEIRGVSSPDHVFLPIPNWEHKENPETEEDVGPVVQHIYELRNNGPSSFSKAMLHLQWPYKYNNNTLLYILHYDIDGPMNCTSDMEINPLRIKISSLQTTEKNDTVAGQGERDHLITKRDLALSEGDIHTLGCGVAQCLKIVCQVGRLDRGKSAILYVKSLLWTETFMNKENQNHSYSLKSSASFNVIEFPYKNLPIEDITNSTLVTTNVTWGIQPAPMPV

Results are given in words; binding and its absence hold for the method and conditions named. Binding seen in cells or lysates may run through a third protein. Binding can be weak; no strength is given.

This test addresses Tau-APEX2 (APEX2 fused to the C-terminus of Tau) (human) (UniProt P10636). Briefly: co-IP; Tau-APEX2 incubated with purified ITGαV/β1 ectodomains; immunoprecipitation of Tau; immunoblotting; both purified. Background: Immunoblotting shows a protein as a band on a membrane.

For the substance “purified ITGβ1 ectodomain (of purified ITGαV/β1 ectodomains) (from UniProt P05556 21-728) (domain or fragment)”, the binding result is “binds”. “purified ITGαV ectodomain (of purified ITGαV/β1 ectodomains) (from UniProt P06756 31-992) (domain or fragment)”: the binding entry is listed as “binds”.
